From patent US20120245121A1, “METHODS FOR IMPROVING BONE HEALTH IN INFANTS USING LONG CHAIN POLYUNSATURATED FATTY ACIDS” (ABBOTT LABORATORIES, priority 2011, published 2012)
For at least one compound, name, drawing or mass did not settle the structure.

System: human bone marrow cells
Assay: qPCR expression of osteogenic markers (OCN, ALP, Type 1 Collagen) in human bone marrow cells
Format: cell-based
Conditions: for expression of ALP compared to basal control cultures / expression of OCN compared to basal control cultures / expression of Type 1 Collagen compared to basal control cultures: basal media with 5, 50 or 100 μM

SMILES: CC/C=C\C/C=C\C/C=C\C/C=C\C/C=C\C/C=C\CCC(=O)O [DHA, docosahexaenoic acid]
- ALP compared to control cells grown in osteogenic media (day 7, 5 μM): less
- expression of ALP compared to basal control cultures (day 7): significantly greater
- expression of OCN compared to basal control cultures (day 7): significantly greater
- expression of Type 1 Collagen compared to basal control cultures (day 7): significantly greater
- ALP expression (day 21): approaches basal levels
- expression of OCN compared to control cells grown in osteogenic media (day 21): equal to or greater than
- expression of Type 1 Collagen compared to control cells grown in osteogenic media (day 21): equal to or greater than

SMILES: CC/C=C\C/C=C\C/C=C\C/C=C\C/C=C\CCCC(=O)O [EPA, eicosapentaenoic acid]
- OCN production compared to osteogenic media (day 7): greater
- Type 1 Collagen expression compared to control cells grown in osteogenic media (day 7): does not achieve equivalence
- expression of ALP compared to basal control cultures (day 7): significantly greater
- expression of OCN compared to basal control cultures (day 7): significantly greater
- expression of Type 1 Collagen compared to basal control cultures (day 7): significantly greater
- ALP expression (day 21): decreased
- OCN expression compared to control cells grown in both basal and osteogenic media (day 21): remains elevated
- expression of Type 1 Collagen (day 21): decreased
